Source: article PMC11304330
These are yes or no findings as the source states them, for the method shown. In cells and extracts the contact can be indirect. Some results given as binding are weak or reduced against the parent protein; the word gives no strength.

By UniProt entry, the sequences of proteins in these tests, tags left out.
UniProt P21926: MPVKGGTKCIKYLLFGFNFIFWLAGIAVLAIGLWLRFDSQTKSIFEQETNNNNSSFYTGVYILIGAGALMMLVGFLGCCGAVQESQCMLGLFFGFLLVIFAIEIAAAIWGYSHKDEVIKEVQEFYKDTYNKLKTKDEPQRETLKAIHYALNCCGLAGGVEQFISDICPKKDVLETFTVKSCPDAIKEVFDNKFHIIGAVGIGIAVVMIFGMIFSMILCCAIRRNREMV

Target: T1, friend leukemia integration 1 (FLI1) (UniProt Q01543)
T1 sequence: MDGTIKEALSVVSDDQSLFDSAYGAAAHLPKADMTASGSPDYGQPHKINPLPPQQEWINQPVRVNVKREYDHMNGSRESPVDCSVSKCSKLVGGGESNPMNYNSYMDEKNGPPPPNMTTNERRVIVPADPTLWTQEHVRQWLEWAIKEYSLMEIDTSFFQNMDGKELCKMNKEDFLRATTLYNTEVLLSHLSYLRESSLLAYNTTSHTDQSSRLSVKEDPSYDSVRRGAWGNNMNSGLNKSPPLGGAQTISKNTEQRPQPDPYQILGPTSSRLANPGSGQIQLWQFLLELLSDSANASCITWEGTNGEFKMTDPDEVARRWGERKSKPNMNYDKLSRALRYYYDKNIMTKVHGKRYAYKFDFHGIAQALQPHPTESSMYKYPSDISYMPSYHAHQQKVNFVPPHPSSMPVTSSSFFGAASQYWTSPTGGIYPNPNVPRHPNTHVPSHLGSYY
Assay: co-IP; FFA-treated Huh7 cells; lysates collected at 48 h post-transfection in RIPA buffer (10 mM sodium phosphate pH 8.0, 150 mM NaCl, 1% Triton X-100, 1% sodium deoxycholate, 0.1% SDS, 1 mM DTT, PMSF, PIC); 1 µg of antibody with protein A-agarose beads, 4 °C overnight; immunoblot

Question: With “tetraspanin CD9 (from UniProt P21926 1-228)” as the substance, how does the binding read?
Answer: binds
